According to article PMC7862700:
The list shows a part of the results, in another mix than the full data. At the low end of the ranking, values are background and their order means little.

target: T1, SPIC (UniProt Q8N5J4); experiment: DAPPL (digital affinity profiling via proximity ligation, sequencing); settings: 10 mM Tris-HCl pH 7.5, 50 mM NaCl, 1 mM DTT, 4% glycerol, room temperature, 30 min; GST-TFs on glutathione beads, 16-mer random dsDNA library, 0.1% …; high values mean tight binding; double strand, one strand shown; scale: fold enrichment (6-mer frequency, TF over GST control)
T1 sequence: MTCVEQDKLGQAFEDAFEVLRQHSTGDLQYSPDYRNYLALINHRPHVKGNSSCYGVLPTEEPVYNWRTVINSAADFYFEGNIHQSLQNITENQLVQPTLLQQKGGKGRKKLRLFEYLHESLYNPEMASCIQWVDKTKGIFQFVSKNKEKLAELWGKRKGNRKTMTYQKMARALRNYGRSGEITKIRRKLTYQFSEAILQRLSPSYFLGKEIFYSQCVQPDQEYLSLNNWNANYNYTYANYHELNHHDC

Sequence | binding signal
CTTTCT | 1.67
GAACCT | 1.09
TTTATT | 1.25
ATCGAT | 1.2
CACGCT | 1.23
TCTTCT | 1.31
TATTAT | 1.35
GTATAT | 1.18
CGTTCA | 0.938
ATACTA | 1.1
ACATTA | 1.23
ATAGCA | 0.908
TTTGGT | 1.37
CTGCAA | 1.2
TGTCTC | 1.11
TCTAGT | 1.18
CTTTAA | 1.36
TACTTC | 3.27
TAAACA | 1.29
CTAATG | 1.35

Sequence | binding signal
GCCCTT | 1.1
CCCAAT | 1.27
CTCCGC | 1.51
TCTTAA | 1.2
TCACGA | 1.1
TTTAGG | 0.995
GACCTC | 1.18
CCATTG | 0.971
TCGCAC | 1.06
TTATTG | 1.29
AAACCC | 1.2
CGACTA | 1.47
GTTCTA | 1.37
ACAAGC | 0.972
CCGTAA | 1.03
CTTGCC | 1.66
GCCTCG | 1.07
ACTGCT | 1.56
CTGAAT | 1.29

Retrieved one by one from above, 3 records:
Sequence | binding signal
CCATTG | 0.971
TCGCAC | 1.06
TCACGA | 1.1
